Laboratory results: PubChem BioAssay AID1259308 (NCATS, 2017)

- Purpose: 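Knock-downs that increase output of a recombinant reporter protein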 (primary screen)
- Cells: human HEK293 embryonic kidney cells stably expressing firefly luciferase (HEK-CMV-Luc2-Hygro)
- Reagents: single siRNA against human genes, 0.8 pmol siRNA per well
- Time to read-out: 72 h
- Detection: 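Reporter luminescence and viable-cell signal on separate replicate plates, given as percent of non-targeting control and median/MAD z-scores, plus per-cell luciferase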
- Reading the numbers: total luciferase, z-score: higher = more reporter protein produced
- Rule for the call: 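Active when the median/MAD z-score for overall luciferase is greater than 3; a gene was taken forward for validation with new siRNAs if at least two of its three siRNAs passed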
- Calls: active = raised luciferase; inactive = no rise
Here is an unselected part of about 59,000 deposited reagents. About 1,510 of them (2.6%) count as active. 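Calls use total luciferase alone and ignore viability, so some active siRNAs may act by altering cell number.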 Unmarked entries are inactive. Reagents against one gene are numbered here. Further read-outs or replicates are left out here. No sequences are given here.

| gene knocked down | reagent no. | total luciferase, z-score |
| --- | --- | --- |
| SPINK8 (GeneID 646424) | 1 | 0.384 |
| SPINK8 (GeneID 646424) | 2 | -1.15 |
| SPINK8 (GeneID 646424) | 3 | -0.114 |
| EGR2 (GeneID 1959) | 1 | 0.122 |
| EGR2 (GeneID 1959) | 2 | 0.0582 |
| EGR2 (GeneID 1959) | 3 | 0.115 |
| ZNF461 (GeneID 92283) | 1 | 1.76 |
| ZNF461 (GeneID 92283) | 2 | 1.06 |
| ZNF461 (GeneID 92283) | 3 | 1.17 |
| DHX57 (GeneID 90957) | 1 | 0.451 |
| DHX57 (GeneID 90957) | 2 | 0.657 |
| DHX57 (GeneID 90957) | 3 | -0.226 |
| CEP72 (GeneID 55722) | 1 | -0.615 |
| CEP72 (GeneID 55722) | 2 | 2.22 |
| CEP72 (GeneID 55722) | 3 | 1.5 |
| MORC3 (GeneID 23515) | 1 | -0.0984 |
| MORC3 (GeneID 23515) | 2 | -1.19 |
| MORC3 (GeneID 23515) | 3 | 0.943 |
| DNMT3A (GeneID 1788) | 1 | 1.02 |
| DNMT3A (GeneID 1788) | 2 | -0.727 |
| DNMT3A (GeneID 1788) | 3 | -1.57 |
| WRAP73 (GeneID 49856) | 1 | -0.0239 |
| WRAP73 (GeneID 49856) | 2 | 0.628 |
| WRAP73 (GeneID 49856) | 3 | -0.929 |
| LILRB3 (GeneID 11025) | 1 | -0.621 |
| LILRB3 (GeneID 11025) | 2 | 0.35 |
| LILRB3 (GeneID 11025) | 3 | 3.01 (active) |
| JAKMIP1-DT (GeneID 285484) | 1 | 0.817 |
| JAKMIP1-DT (GeneID 285484) | 2 | 1.8 |
| JAKMIP1-DT (GeneID 285484) | 3 | -0.613 |
| BMS1P15 (GeneID 642311) | 1 | 0.281 |
| BMS1P15 (GeneID 642311) | 2 | -0.241 |
| BMS1P15 (GeneID 642311) | 3 | 1.89 |
| OR4N2 (GeneID 390429) | 1 | 1.04 |
| OR4N2 (GeneID 390429) | 2 | 0.825 |
| OR4N2 (GeneID 390429) | 3 | 0.0628 |
| CT45A5 (GeneID 441521) | 1 | -0.601 |
| CT45A5 (GeneID 441521) | 2 | 2.16 |
| CT45A5 (GeneID 441521) | 3 | -0.336 |
| SRGAP2 (GeneID 23380) | 1 | 0.0645 |
| SRGAP2 (GeneID 23380) | 2 | -1.02 |
| SRGAP2 (GeneID 23380) | 3 | 0.159 |
| SRGAP2 (GeneID 23380) | 4 | -0.14 |
| SRGAP2 (GeneID 23380) | 5 | 2.84 |
| SRGAP2 (GeneID 23380) | 6 | 0.8 |
| KPNA5 (GeneID 3841) | 1 | -0.684 |
| KPNA5 (GeneID 3841) | 2 | -1.03 |
| KPNA5 (GeneID 3841) | 3 | -0.468 |
| CCNE1 (GeneID 898) | 1 | -0.228 |
| CCNE1 (GeneID 898) | 2 | 2.3 |
| CCNE1 (GeneID 898) | 3 | 0.247 |
| ITPA (GeneID 3704) | 1 | -0.885 |
| ITPA (GeneID 3704) | 2 | -0.618 |
| ITPA (GeneID 3704) | 3 | 0.795 |
| GPATCH11 (GeneID 253635) | 1 | -1.76 |
| GPATCH11 (GeneID 253635) | 2 | -0.291 |
| GPATCH11 (GeneID 253635) | 3 | -0.764 |
| ALOX12B (GeneID 242) | 1 | -0.481 |
| ALOX12B (GeneID 242) | 2 | -0.682 |
| ALOX12B (GeneID 242) | 3 | -0.0726 |
| MRPL51 (GeneID 51258) | 1 | -0.208 |
| MRPL51 (GeneID 51258) | 2 | 0.879 |
| MRPL51 (GeneID 51258) | 3 | -0.745 |
| BRMS1L (GeneID 84312) | 1 | -0.462 |
| BRMS1L (GeneID 84312) | 2 | 0.6 |
| BRMS1L (GeneID 84312) | 3 | -0.123 |
| LOC401052 (retired record) (GeneID 401052) | 1 | 2.12 |
| LOC401052 (retired record) (GeneID 401052) | 2 | -0.0464 |
| LOC401052 (retired record) (GeneID 401052) | 3 | 1.43 |
| RAPGEF3 (GeneID 10411) | 1 | 3.9 (active) |
| RAPGEF3 (GeneID 10411) | 2 | 0.363 |
| RAPGEF3 (GeneID 10411) | 3 | 0.0104 |
| PLA2G1B (GeneID 5319) | 1 | -0.246 |
| PLA2G1B (GeneID 5319) | 2 | 1.86 |
| PLA2G1B (GeneID 5319) | 3 | -0.43 |

Records listed so far with an active call (2):
| gene knocked down | reagent no. | total luciferase, z-score |
| --- | --- | --- |
| LILRB3 (GeneID 11025) | 3 | 3.01 (active) |
| RAPGEF3 (GeneID 10411) | 1 | 3.9 (active) |
